# Literature values as cited in patent US20230285292A1, “COMPOSITIONS AND METHODS OF USING A PLA2-RESPONSIVE DRUG DELIVERY SYSTEM” (THE TRUSTEES OF THE UNIVERSITY OF PENNSYLVANIA, priority 2020, published 2023).
# At least one structure is not confirmed: it was looked up by name or label, or the drawing left a doubt.
# Conditions: cited from earlier work
compound,measurement,value
"CCCCCCCCCCCCCCCCSCC(COP(=O)([O-])OCC[N+](C)(C)C)NC(=O)CCCCCCCCCCCCCCC (stereo not shown) [sPLA2i, 1-Palmitylthio-2-palmitoylamido-1,2-dideoxy-sn-glycero-3-phosphorylcholine]",crossing of the blood spinal cord barrier (BSCB),"neither the sPLA2 inhibitor TEA-PC nor the encapsulated TEA-PC, readily cross"
